Experimental data: patent US8580245B2, “Compositions and methods for treating and preventing cardiomyopathy and heart disease” (The Regents of the University of Michigan, priority 2005, dated 2013)
At least one compound was matched to its structure with a doubt left.

Test system: mdx single cardiac myocytes
Assay: Passive tension-extension and [Ca2+]i of single membrane intact cardiac myocytes (micro-carbon fiber stretch), mdx
Format: cell-based, mouse
Details: nifedipine 1 μM, SL stretch to 2.1 μm

## COC(=O)C1=C(C)NC(C)=C(C(=O)OC)C1c1ccccc1[N+](=O)[O-] [nifedipine]
  heightened [Ca2+]i upon SL stretch: not blocked
